Assay results taken from article PMC5053439.
Results are given in words; binding and its absence hold for the method and conditions named. In cells and extracts the contact can be indirect. Some results given as binding are weak or reduced against the parent protein; the word gives no strength. For some of these results: Sequences can lack the tags named with a protein.

Sequences of proteins named here, by UniProt entry; tags and fusion partners are left off.
UniProt P32780: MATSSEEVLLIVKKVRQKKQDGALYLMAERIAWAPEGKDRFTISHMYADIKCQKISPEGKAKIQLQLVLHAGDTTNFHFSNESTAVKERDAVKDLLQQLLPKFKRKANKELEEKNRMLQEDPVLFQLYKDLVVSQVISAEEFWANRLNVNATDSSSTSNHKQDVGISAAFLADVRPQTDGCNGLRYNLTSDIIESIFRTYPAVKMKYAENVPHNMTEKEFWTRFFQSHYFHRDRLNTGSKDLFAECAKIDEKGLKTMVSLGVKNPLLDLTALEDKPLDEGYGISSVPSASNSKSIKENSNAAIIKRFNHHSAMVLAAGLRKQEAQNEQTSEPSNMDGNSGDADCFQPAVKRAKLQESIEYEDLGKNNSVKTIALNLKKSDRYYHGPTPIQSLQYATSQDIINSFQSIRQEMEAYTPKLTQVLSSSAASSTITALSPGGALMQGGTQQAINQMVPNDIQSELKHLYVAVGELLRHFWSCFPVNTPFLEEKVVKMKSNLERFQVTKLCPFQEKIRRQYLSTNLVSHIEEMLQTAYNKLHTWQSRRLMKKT
UniProt P21698: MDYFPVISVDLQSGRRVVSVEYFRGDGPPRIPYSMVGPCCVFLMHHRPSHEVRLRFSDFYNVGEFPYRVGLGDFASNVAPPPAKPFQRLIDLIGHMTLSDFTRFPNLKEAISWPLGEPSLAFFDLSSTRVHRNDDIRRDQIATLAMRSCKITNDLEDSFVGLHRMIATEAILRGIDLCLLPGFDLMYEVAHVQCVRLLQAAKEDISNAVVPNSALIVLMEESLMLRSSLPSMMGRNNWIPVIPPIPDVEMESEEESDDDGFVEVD

Key:
[1] = biological target: T1, TFIIH subunit p44 (GTF2H2) (human (endogenous in HeLa)) (UniProt Q13888); experiment: co-IP
T1 sequence: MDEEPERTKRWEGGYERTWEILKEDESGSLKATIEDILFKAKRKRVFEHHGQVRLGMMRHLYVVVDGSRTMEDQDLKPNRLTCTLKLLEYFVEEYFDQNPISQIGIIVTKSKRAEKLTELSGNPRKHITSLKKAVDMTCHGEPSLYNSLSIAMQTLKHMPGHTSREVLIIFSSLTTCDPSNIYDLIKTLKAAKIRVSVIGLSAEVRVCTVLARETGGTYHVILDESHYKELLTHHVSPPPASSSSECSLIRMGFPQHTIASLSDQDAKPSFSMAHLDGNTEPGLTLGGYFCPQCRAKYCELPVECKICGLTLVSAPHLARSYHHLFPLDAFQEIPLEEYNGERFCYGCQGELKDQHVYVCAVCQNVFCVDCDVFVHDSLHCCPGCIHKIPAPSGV

[2] = biological target: T2, human FBXO3 isoform 1 with an N-terminal V5 tag (human) (UniProt Q9UK99); experiment: co-IP
T2 sequence: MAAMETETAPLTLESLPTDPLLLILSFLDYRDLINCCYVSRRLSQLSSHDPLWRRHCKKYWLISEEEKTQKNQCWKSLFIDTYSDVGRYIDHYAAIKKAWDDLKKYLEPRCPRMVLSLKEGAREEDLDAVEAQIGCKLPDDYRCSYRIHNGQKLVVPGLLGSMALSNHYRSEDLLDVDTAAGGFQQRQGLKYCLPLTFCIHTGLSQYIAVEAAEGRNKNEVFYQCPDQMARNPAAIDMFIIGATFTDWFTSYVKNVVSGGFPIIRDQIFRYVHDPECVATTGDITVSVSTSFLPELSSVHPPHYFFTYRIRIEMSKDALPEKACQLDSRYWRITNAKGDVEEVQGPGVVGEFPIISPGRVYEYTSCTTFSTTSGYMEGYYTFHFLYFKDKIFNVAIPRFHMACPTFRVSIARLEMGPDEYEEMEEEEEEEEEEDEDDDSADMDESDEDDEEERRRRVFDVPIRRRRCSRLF

[3] = biological target: T3, human Sin3-associated protein 30 with an N-terminal V5 tag (human) (UniProt O75446); experiment: co-IP
T3 sequence: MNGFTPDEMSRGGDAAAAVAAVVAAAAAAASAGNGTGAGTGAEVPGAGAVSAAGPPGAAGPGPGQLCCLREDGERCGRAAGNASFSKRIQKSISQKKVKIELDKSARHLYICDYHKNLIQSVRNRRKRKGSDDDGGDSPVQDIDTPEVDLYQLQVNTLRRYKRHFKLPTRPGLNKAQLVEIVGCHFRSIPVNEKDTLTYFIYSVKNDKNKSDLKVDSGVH

[4] = biological target: TFIIH subunit p62 (GTF2H1) (human (endogenous in HeLa)) (UniProt P32780); experiment: co-IP; […] (20 mM Tris-HCl pH 7.6, 0.1% Triton X-100, 150 mM NaCl, 1 mM EDTA, […]

Measured: binding

RVFV MP-12 NSs protein with a C-terminal Flag tag (wild type NSs) (from UniProt P21698 1-265)
binds: [1] | [2] | [3] | [4]
